Results are given in words; binding and its absence hold for the method and conditions named. Binding seen in cells or lysates may run through a third protein. A result given as binding can be weak or reduced; the word gives no strength. Where a sequence is shown, tags or fusion partners need not be part of it.
T1: IKBKB with Myc tag (IKBKB-Myc) (UniProt O14920)
T1 sequence: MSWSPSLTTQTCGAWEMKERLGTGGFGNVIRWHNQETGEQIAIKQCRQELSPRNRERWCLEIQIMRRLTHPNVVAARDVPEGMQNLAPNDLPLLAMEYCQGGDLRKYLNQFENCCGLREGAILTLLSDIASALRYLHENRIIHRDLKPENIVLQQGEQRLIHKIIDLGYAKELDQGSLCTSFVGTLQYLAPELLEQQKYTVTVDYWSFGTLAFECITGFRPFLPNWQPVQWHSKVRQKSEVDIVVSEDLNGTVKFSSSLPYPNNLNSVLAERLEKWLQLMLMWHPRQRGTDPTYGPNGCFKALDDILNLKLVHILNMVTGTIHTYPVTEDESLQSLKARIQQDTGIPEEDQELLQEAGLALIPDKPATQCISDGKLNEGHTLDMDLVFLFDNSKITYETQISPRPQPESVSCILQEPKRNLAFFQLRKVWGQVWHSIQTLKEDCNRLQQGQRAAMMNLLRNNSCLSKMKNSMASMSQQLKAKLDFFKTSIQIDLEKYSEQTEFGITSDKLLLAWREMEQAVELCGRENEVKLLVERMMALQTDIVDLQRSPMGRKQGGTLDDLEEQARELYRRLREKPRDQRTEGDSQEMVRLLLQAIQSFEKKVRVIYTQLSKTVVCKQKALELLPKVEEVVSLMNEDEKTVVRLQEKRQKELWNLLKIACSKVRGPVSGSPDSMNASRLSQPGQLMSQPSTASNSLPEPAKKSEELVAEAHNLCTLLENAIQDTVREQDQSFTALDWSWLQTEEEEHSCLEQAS

B1: inhibitor of nuclear factor kappa-B kinase subunit beta with Flag-tag at the C-terminus (IKBKB-Flag) (enzyme, UniProt O14920 1-756)
chain: T1 sequence

Columns and labels:
[1] = target: T1, IKBKB with Myc tag (IKBKB-Myc); experiment: co-IP; HEK293T cells co-transfected with the two plasmids, lysed at 24 hpt in IP lysis buffer; cleared lysates with anti-Myc agarose overnight at 4 °C; washed with TBST (25 mM Tris-HCl, 0.15 M NaCl, 0.05% tween 20, pH 7.2); blots with anti-Flag, anti-HA and anti-Myc
[2] = target: PEDV ORF3 with Myc tag (ORF3-Myc) (porcine epidemic diarrhea virus (PEDV)); experiment: as above

Row | Molecule | binding [1] | binding [2]
1 | PEDV ORF3 with Flag tag (ORF3-Flag) (porcine epidemic diarrhea virus (PEDV)) | binds | 
2 | B1 |  | binds
